Test results reported in patent EP4566586A1, “SKIN-CARE PRODUCT COMPOSITION AND PHARMACEUTICAL COMPOSITION COMPRISING SULFONATED CALIXARENE, AND USE OF SULFONATED CALIXARENE” (Calix Biotechnology (Hangzhou) Co., Ltd, priority 2022, dated 2024).
For some of these results: At least one read-out could not be matched to a standard name with certainty. For some of these results: For at least one compound, name, drawing or mass did not settle the structure. Marks after values point to notes of the source that are not given here.

Key:
[1] = UV titration, binding constants between SC8A-12C and skincare active substances; settings: 25°C, 1:1 host-guest direct binding model; for Binding constants Ka: host SC8A-12C, active substance 15 µM in deionized water
Description: Test Method: UV titration.
Test Equipment: A Japan Shimadzu UV-3600 UV-Visible Spectrophotometer, equipped with a temperature control module (model: PTC-348WI), was used. The samples were tested using Shimadzu's quartz cuvettes with an optical path length of 10 mm.
Reagents: Vitamin A (Va) was purchased from Shanghai Macklin Biochemical Technology Co., Ltd, retinoic acid was purchased from Heowns Biochem Technologies, LLC, Tianjin, and other skincare active substances were commercially available products.
Va was dissolved in methanol to a concentration of 2 mM. During the test, the Va stock solution was added to a cuvette and adjusted to a volume of 3 mL with deionized water, resulting in a concentration of 10 µM. […] The binding constant Kα for the host-guest inclusion was determined.
During the test, the retinoic acid stock solution was added to a cuvette and adjusted to a volume of 3 mL with deionized water, resulting in a concentration of 15 µM.
During the test, the stock solution of the active substance was added to a cuvette and adjusted to a volume of 3 mL with deionized water, resulting in a concentration of 15 µM. […] The UV titration data were fitted using a 1:1 host-guest direct binding model to determine the binding constant Kα for the host-guest inclusion.

[2] = Solubilization of Retinoic acid by sulfonated calixarene (UV absorption); format: physicochemical; settings: for solubilization of retinoic acid: 2000 µM host in deionized water, excess retinoic acid 5 mg/mL, ultrasonic treatment 20 mins, UV peak 360 nm
[3] = Solubilization of phenylethyl resorcinol by sulfonated calixarene (UV absorption); settings: 2 mM SC8A-12C solution, 10 mg in 1 mL completely dissolved

Row | Compound | binding constant Kα of SC8A-12C ([1]; guest Va 10 µM (317 nm) or retinoic acid 15 µM) | Binding constants Ka [1] | [dissolved retinoic acid] ([2]; [SC8A-12C] 0 µM, Not detected under UV) | solubility of phenylethyl resorcinol in water, enhanced by the sulfonated calixarene [3] | solubilization of retinoic acid [2]
1 | CC1=C(/C=C/C(C)=C/C=C/C(C)=C/C(=O)O)C(C)(C)CCC1 [retinoic acid] | (1.0 ± 0.3) × 10^5 M^-1 | 1.0±0.3×10^5 M^-1 | 0* µM | – | –
2 | CC(c1ccccc1)c1ccc(O)cc1O (stereo not shown) [phenylethyl resorcinol] | – | 4.5±0.5×10^4 M^-1 | – | above 10 mg/mL | –
3 | O=S(=O)(O)c1cc2c(O)c(c1)Cc1cc(S(=O)(=O)O)cc(c1O)Cc1cc(S(=O)(=O)O)cc(c1O)Cc1cc(S(=O)(=O)O)cc(c1O)C2 [SC4A, Sulfonated calix[4]arene] | – | – | – | – | cannot solubilize retinoic acid effectively
4 | O=S(=O)(O)c1cc2c(O)c(c1)Cc1cc(S(=O)(=O)O)cc(c1O)Cc1cc(S(=O)(=O)O)cc(c1O)Cc1cc(S(=O)(=O)O)cc(c1O)Cc1cc(S(=O)(=O)O)cc(c1O)Cc1cc(S(=O)(=O)O)cc(c1O)Cc1cc(S(=O)(=O)O)cc(c1O)Cc1cc(S(=O)(=O)O)cc(c1O)C2 [SC8A, Sulfonated calix[8]arene] | – | – | – | – | cannot solubilize retinoic acid effectively
